# Laboratory results reported in article PMC2797798.
# Protein sequences, listed by entry. Tags and fused reporters are not part of them.
# UniProt P35579: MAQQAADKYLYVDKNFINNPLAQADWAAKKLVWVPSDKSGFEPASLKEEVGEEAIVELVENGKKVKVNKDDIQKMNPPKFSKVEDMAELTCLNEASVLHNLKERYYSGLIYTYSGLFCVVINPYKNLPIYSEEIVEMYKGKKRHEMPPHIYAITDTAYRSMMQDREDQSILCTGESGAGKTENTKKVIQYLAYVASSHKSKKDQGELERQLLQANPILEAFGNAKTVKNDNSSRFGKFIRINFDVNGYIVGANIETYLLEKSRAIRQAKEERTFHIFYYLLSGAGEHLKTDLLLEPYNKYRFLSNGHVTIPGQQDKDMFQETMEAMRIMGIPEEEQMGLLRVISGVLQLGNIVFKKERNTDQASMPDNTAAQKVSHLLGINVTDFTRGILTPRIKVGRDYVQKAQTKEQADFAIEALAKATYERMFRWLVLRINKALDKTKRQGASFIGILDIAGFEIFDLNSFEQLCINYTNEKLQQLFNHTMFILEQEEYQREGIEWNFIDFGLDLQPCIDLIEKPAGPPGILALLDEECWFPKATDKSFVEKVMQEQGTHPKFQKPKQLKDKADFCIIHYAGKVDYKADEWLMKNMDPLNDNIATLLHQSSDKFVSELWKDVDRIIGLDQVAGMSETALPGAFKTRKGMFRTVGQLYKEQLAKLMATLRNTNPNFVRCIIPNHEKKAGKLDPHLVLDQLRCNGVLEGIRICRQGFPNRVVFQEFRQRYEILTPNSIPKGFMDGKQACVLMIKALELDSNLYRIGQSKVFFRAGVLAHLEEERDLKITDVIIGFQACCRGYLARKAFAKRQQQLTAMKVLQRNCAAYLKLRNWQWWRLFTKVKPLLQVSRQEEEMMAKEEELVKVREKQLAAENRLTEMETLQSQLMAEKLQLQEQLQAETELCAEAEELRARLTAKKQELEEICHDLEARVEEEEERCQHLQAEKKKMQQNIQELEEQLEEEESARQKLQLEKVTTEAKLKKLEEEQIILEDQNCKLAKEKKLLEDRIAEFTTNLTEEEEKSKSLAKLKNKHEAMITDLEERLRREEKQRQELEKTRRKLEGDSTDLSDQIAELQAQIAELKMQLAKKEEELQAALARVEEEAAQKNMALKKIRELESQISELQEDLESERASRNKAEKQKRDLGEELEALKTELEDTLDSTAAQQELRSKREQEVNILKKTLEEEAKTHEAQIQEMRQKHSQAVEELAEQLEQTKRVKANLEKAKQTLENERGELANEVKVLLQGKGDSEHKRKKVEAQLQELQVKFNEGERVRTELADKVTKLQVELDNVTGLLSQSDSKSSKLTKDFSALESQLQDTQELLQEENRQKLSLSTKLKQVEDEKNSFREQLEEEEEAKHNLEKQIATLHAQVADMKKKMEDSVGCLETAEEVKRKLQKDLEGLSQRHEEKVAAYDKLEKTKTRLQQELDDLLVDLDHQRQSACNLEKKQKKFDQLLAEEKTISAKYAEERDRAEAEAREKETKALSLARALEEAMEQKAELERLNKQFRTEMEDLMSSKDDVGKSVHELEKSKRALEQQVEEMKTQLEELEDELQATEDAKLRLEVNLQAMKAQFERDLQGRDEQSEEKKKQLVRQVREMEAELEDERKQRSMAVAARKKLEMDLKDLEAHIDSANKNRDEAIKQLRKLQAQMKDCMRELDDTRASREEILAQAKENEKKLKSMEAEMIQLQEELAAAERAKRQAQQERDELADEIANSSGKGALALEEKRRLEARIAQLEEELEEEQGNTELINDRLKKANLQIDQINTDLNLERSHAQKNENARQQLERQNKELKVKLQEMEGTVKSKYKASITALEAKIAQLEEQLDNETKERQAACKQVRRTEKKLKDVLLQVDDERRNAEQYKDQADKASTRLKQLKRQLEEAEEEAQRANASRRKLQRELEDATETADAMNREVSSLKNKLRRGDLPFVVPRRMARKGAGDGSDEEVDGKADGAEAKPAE
# No constants are given. Whether binding was seen depends on the method and setting. Binding seen in cells or lysates may run through a third protein. A yes stands for co-enrichment or nearness to the bait. Other partners may have been found. Sequences can lack the tags named with a protein.
# Target: T1, FLAG-tagged Gas8 (human) (UniProt O95995)
# T1 sequence: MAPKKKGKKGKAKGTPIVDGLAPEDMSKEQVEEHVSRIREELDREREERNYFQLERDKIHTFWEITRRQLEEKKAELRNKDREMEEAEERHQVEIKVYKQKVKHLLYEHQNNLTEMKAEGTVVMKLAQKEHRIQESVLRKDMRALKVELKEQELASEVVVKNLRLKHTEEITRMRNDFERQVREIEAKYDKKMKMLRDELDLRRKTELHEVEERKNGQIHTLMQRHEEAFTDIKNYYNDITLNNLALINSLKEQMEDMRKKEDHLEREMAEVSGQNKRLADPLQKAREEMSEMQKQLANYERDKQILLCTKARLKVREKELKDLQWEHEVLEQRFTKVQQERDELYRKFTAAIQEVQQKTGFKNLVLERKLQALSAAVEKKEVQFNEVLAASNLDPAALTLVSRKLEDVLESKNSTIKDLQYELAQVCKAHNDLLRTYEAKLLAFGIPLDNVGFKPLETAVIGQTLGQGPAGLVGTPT
# Assay: affinity purification with mass spectrom
substance,measurement,value
myosin-9 (from UniProt P35579 1-1960),binding,binds
